Patent publication EP4534539A1, “DIDEUTERATED CAMPTOTHECIN DERIVATIVE AND PREPARATION METHOD THEREFOR” (priority 2022, dated 2023)
At least one structure is not confirmed: it was looked up by name or label, or the drawing left a doubt.

Legend:
[1] = test system: HCT116 cells; experiment: HCT-116 cell inhibitory activity test (MTT); type: cell-based; settings: result in words, summary of Table 1
Procedure: HCT116 cells (purchased from ATCC) were cultured in a 5% CO2 incubator at 37 °C using DMEM culture medium (purchased from Gibco) supplemented with 10% fetal bovine serum and 1% penicillin-streptomycin solution. The cells were seeded in 96-well plates at 3000 cells per well and cultured overnight. Different concentrations of drugs were respectively added, and the cells were placed in a normal incubator (21 % O2, 5% CO2, and 74% N2) and cultured for 72 h. 100 µL of culture medium was removed. 10 µL of MTT solution (5 mg/mL) was added. Then the cells were cultured in the incubator for 4 hours. 50 µL of triple combination solution (10% SDS, 5% isobutanol, and 0.012 mol/L HCl) was added. The cells were placed in the incubator overnight. OD values were measured at 540 nm wavelength, and median inhibition concentration IC50 of the drug on tumor cell growth was calculated (n=3). Compounds with activity designated as "A" provide IC50≤10nM. Compounds with activity designated as "B" provide IC50 of 10 nM to 100 nM. Compounds with activity designated as "C" provide IC50 of 100 nM to 1000 nM. Compounds with activity designated as "D" provide IC50 of 1000 nM to 10000 nM. Titer (nM); Efficacy (IC50).

[2] = test system: MDA-MB-468 cells; experiment: Inhibitory activity on MDA-MB-468 cells (MTT); type: cell-based; settings: result in words; stated superior to non-deuterated Belotecan, SN-38 and exatecan
Procedure: (§1) MDA-MB-468 cells (purchased from ATCC) were cultured in L-15 culture medium (purchased from Sigma-Aldrich), NCI-N87 cells (purchased from ATCC) were cultured in RPMI-1640 culture medium (purchased from Gibco), and HT29 cells (purchased from ATCC) were cultured in McCoy's 5A culture medium (purchased from Gibco), each of which was supplemented with 10% fetal bovine serum and 1% penicillin-streptomycin solution, and placed in a 5% CO2 incubator at 37°C. The cells were seeded in 96-well plates at 3000 cells per well and cultured overnight. Different concentrations of drugs were respectively added, and the cells were placed in a normal incubator (21% O2, 5% CO2, and 74% N2) and cultured for 72 h. 100 µL of culture medium was removed. 10 µL of MTT solution (5 mg/mL) was added. Then the cells were cultured in the incubator for 4 hours. 50 µL of triple combination solution (10% SDS, 5% isobutanol, and 0.012 mol/L HCl) was added. The cells were placed in the incubator overnight. OD values were measured at 540 nm wavelength, and median inhibition concentration IC50 of the drug on tumor cell growth was calculated (n=3).

[3] = test system: NCI-N87 cells; experiment: Inhibitory activity on NCI-N87 cells (MTT); type: cell-based, human; settings: result in words; stated superior to non-deuterated Belotecan, SN-38 and exatecan
Procedure: as §1

[4] = test system: HT29 cells; experiment: Inhibitory activity on HT29 cells (MTT); type: cell-based, human; settings: result in words; stated superior to non-deuterated Belotecan, SN-38 and exatecan
Procedure: as §1

| SMILES | HCT-116 cell inhibitory activity [1] | inhibitory effects on breast cancer cell MDA-MB-468 [2] | inhibitory effects on human gastric cancer cell NCI-N87 [3] | inhibitory effects on human colon cancer cell HT29 [4] |
| --- | --- | --- | --- | --- |
| [2H]C1([2H])OC(=O)[C@](O)(CC)c2cc3n(c(=O)c21)Cc1c-3nc2ccc(O)cc2c1CC [Compound A-9] | good HCT-116 cell inhibitory activity | good inhibitory effects | good inhibitory effects | good inhibitory effects |
| [2H]C1([2H])OC(=O)[C@](O)(CC)c2cc3n(c(=O)c21)Cc1c-3nc2cc(F)c(C)c3c2c1[C@@H](N)CC3 [Compound A-11] | good HCT-116 cell inhibitory activity | good inhibitory effects | good inhibitory effects | good inhibitory effects |
